Results are given in words; binding and its absence hold for the method and conditions named. Binding seen in cells or lysates may run through a third protein. Some results given as binding are weak or reduced against the parent protein; the word gives no strength.
What was measured:
Assay in all cases: co-immunoprecipitation, tagged proteins transiently expressed in 293T cells
[1] = molecular target: T1, ARC (UniProt O60936)
T1 sequence (looked up): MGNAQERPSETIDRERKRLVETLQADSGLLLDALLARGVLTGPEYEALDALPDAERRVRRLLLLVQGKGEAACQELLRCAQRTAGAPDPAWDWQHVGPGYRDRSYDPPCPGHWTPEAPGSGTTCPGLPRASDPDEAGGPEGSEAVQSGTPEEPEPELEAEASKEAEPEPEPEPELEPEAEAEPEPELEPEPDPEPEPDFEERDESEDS

By UniProt entry, the sequences of proteins in these tests, tags left out. Where a name states a change or a piece, a line headed by the entry shows the natural chain unless it says otherwise.
UniProt P29466: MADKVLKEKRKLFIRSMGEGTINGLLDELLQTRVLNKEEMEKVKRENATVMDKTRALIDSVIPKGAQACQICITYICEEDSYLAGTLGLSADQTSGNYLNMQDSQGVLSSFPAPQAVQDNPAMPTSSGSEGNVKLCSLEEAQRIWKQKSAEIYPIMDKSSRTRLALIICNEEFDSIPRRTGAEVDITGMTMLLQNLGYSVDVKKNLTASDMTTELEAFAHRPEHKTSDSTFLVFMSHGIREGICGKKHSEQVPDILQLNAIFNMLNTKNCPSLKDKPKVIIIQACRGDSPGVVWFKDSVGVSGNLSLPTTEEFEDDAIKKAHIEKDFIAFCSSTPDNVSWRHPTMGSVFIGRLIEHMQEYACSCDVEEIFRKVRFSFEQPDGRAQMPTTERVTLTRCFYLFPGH
UniProt Q14790: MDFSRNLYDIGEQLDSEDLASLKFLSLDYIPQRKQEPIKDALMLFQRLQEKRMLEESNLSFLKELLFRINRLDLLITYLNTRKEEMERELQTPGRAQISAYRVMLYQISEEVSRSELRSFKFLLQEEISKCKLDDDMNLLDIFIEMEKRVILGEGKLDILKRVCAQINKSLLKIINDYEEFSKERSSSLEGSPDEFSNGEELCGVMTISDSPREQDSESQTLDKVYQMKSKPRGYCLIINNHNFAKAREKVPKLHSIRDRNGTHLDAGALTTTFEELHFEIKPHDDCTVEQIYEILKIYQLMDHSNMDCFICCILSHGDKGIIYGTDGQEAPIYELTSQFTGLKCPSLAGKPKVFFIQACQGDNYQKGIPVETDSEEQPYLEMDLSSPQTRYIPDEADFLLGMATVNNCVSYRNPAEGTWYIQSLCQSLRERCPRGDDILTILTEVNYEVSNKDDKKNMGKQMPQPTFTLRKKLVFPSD
UniProt Q9Y239: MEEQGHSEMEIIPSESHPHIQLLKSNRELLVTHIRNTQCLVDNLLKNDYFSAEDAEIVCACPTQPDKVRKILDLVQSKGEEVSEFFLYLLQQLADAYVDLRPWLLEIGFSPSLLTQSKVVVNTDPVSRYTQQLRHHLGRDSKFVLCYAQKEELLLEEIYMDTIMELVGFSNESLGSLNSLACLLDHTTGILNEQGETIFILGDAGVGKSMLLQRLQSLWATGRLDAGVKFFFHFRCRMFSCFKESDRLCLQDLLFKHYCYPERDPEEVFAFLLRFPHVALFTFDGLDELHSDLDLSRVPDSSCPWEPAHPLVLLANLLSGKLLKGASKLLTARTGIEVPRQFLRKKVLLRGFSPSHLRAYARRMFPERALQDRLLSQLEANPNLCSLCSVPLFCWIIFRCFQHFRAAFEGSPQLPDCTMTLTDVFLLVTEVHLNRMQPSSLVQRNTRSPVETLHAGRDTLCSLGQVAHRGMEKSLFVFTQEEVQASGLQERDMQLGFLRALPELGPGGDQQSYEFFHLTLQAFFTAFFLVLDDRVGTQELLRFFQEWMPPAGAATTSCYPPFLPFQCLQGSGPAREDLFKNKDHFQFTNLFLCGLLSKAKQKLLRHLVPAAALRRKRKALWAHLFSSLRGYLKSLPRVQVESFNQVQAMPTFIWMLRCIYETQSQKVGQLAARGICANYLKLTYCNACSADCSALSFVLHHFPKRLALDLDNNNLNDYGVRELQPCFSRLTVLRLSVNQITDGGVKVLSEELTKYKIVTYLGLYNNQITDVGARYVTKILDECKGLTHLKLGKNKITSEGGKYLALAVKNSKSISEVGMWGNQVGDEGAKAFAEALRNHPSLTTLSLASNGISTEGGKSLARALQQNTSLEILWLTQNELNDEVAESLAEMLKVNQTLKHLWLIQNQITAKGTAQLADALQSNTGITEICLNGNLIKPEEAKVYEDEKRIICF

[2] = molecular target: T2, Caspase-4 (UniProt P49662)
T2 sequence (looked up): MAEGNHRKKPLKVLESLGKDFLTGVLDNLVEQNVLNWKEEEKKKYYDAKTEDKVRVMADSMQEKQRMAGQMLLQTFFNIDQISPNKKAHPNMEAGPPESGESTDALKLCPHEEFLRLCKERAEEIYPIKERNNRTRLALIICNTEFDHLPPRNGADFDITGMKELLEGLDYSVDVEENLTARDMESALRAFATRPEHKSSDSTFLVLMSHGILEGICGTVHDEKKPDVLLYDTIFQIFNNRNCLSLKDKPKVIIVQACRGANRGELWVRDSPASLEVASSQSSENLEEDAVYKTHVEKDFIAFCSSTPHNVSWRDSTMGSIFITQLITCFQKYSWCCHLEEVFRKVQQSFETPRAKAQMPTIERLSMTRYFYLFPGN

[3] = molecular target: Caspase-1 (UniProt P29466)
[4] = molecular target: T3, Caspase-2 (UniProt P42575)
T3 sequence (looked up): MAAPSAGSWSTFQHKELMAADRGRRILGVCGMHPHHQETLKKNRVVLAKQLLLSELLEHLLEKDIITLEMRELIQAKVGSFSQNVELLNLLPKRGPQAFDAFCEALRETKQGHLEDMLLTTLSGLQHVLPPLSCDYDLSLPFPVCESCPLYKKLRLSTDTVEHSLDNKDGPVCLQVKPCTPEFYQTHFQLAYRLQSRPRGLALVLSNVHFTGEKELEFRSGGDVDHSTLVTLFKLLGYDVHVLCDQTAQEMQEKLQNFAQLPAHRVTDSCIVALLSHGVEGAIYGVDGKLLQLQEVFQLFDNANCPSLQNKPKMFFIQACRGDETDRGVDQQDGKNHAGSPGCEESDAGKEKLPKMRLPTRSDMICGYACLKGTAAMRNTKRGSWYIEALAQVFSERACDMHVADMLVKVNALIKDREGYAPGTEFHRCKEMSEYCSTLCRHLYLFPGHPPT

[5] = molecular target: Caspase-8 (UniProt Q14790)

- binding [1]: binds
- binding [2]: binds
- binding [3]: binds
- binding [4]: binds
- binding [5]: binds
Substance: Nod1 (from UniProt Q9Y239 1-953)

Source: patent US20030049732A1
